Laboratory results taken from the supplement of paper PMC3334620.
In all, about 33,000 sequences were measured (“E-score (-0.5 to 0.5)”: median about -0.0034, highest 2% from about 0.25 on). The list shows a part of the results.

Each sequence was assayed against T1, Yap3 (UniProt P38749) (assay: PBM E-score (8-mer binding enrichment) (E-score (-0.5 to 0.5)); higher = stronger / more preferred TF binding). Conditions: protein concentration: 100 nM; construct: GST-full length.
T1 sequence: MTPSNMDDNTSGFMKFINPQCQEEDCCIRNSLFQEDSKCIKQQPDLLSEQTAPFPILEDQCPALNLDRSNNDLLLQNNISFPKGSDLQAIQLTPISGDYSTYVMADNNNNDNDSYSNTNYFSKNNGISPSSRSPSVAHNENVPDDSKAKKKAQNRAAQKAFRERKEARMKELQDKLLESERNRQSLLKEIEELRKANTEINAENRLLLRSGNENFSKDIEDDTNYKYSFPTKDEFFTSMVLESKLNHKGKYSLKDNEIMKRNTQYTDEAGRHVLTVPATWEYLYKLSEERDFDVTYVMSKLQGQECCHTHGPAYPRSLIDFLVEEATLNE
How it was run: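 GST-tagged yeast TFs (full-length or DNA-binding domain) were made by PURExpress in vitro transcription/translation and applied at about 100-200 nM to universal all-10-mer Agilent arrays. The arrays were made double-stranded by primer extension, on fresh or once-stripped slides. Bound protein was detected with fluorescent anti-GST, and scans were normalised with masliner. Each ungapped eight-base word, pooled with its reverse complement, received an E-score (modified Wilcoxon-Mann-Whitney statistic) from the Universal PBM Analysis Suite.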

Sequence | PBM E-score
CCCAAGAC | -0.216
CTCTCGCA | -0.166
AACTGAAA | 0.195
GTGATTTA | 0.261
TAGGCACA | -0.0487
CAGAGATC | -0.127
TCCGGGAA | 0.059
CCCTTGTA | -0.154
GGGTTGAC | -0.191
AAAAGGAG | -0.101
GCATGCCC | 0.0351
ATCCAGTA | 0.111
AGACGACG | -0.089
AATTTTTG | 0.114
AATCGTGG | 0.204
CCCTCACG | -0.151
AACGGCAC | -0.0741
CTCCGAAG | -0.129
CAGAAATA | 0.16
CTACAGAA | 0.239
CCTTTGTC | 0.0874
ATCATCGC | 0.059

Sequence | PBM E-score
GAGCTCGA | 0.145
ATGCCCTC | -0.106
CCTACAGC | -0.033
CGGCCGGA | -0.0466
TCTAACCA | 0.116
CCCACAGG | -0.16
CCGCTTAG | -0.0568
AAACATTA | 0.0126
AAGCACGG | -0.0733
TGAGGACA | 0.166
AAGTCAAA | 0.0553
GCTCGCAC | -0.0525
ATTTTAAG | 0.139
ACAGGCTA | -0.113
TGATTAAA | 0.113
ACCGAGAT | 0.0672
CACTCTCG | 0.167
AGGTAACG | -0.00572
AAGGGCGT | -0.147
CATTTTCG | 0.106
CCAGACAC | -0.222
CTCGGTCC | -0.106

Sequence | PBM E-score
CGCCCAAG | -0.158
TCGAATAA | 0.162
CGTGATAG | 0.122
CATTACCC | -0.0516
CGGTTACA | 0.147
CTAAACTA | 0.0415
CATCGCCC | -0.203
GCCCTGCA | -0.273
CTCCTGAA | -0.0154
AACCGAAG | -0.0403
AGACGTAA | 0.102
AAGATACC | 0.197
CGGCTGTA | -0.147
GGATAGAA | 0.178
GCTAGACA | -0.0293
CCTGCGAG | -0.159
ATCCCGTG | 0.127
AGGAGCTG | -0.207
AAGGGCGA | -0.193
CACACTCC | -0.0341
ACAGGGCG | 0.00352
TCCAGGGA | -0.252

Looked up one by one from above, 5 records:
Sequence | PBM E-score
CCTACAGC | -0.033
ACAGGCTA | -0.113
CTCCGAAG | -0.129
GCATGCCC | 0.0351
CCCTCACG | -0.151

(continued)

Sequence | PBM E-score
CGGGAGAC | -0.103
GCTCGGGA | -0.121
AACATATC | 0.189
AGCGCCAG | -0.208
CTGAATGC | -0.0638
ATCCATTG | 0.109
GGCATGGA | 0.0929
GTTATGTA | 0.151
AGCACCCT | -0.227
CCTGTCAA | -0.0447
ACTCAGGC | -0.0336
ATCTTGGC | -0.00939
GAACAGTC | -0.123
AGAAAGAG | -0.0188
AGGTGCCC | -0.273
CAGGATAG | 0.0143
ATGAACAT | 0.241
CAAACTAG | -0.144
CCCGTTTC | -0.0586
ATGTGTGA | 0.0467
